These are yes or no findings as the source states them, for the method shown. Some results given as binding are weak or reduced against the parent protein; the word gives no strength. Where a sequence is shown, tags or fusion partners need not be part of it.
T1: mOSCAR-His fusion protein (mouse) (UniProt Q8VBT3)
T1 sequence (looked up): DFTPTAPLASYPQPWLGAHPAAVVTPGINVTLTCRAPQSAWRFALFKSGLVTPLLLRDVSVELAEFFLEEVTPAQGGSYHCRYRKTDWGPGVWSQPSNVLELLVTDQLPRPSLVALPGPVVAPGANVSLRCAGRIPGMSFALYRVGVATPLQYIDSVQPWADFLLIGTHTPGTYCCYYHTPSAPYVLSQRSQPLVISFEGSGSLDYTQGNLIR


Tests used:
[1] = biological target: T1, mOSCAR-His fusion protein (mouse); assay: solid-phase binding experiment, peptide coated on plate, mOSCAR-His in solution
[2] = biological target: T1, mOSCAR-His fusion protein (mouse); assay: solid-phase binding on 96-well plate: peptide coated, mOSCAR-His added 3 h at 37 C, HRP-labelled antibody, OPD, absorbance at 492 nm
[3] = biological target: T1, mOSCAR-His fusion protein (mouse); assay: solid phase binding experiment, peptide coated on plate, mOSCAR-His in solution, absorbance at 492 nm

| binding [1] | binding [2] | binding [3] | Binder |
| --- | --- | --- | --- |
| binds | binds | binds | GPPGPAGFA (third amino acid Pro hydroxylated (hydroxyproline, Hyp)) [A1-4-1] |
| binds | binds | binds | GAPGPQGFQ (third amino acid Pro hydroxylated (hydroxyproline, Hyp)) [A1-1] |
| binds | binds | binds | GAPGPAGFA (third amino acid Pro hydroxylated (hydroxyproline, Hyp)) [OSC^pep] |
| binds | binds | binds | GPPGATGFP (third amino acid Pro hydroxylated (hydroxyproline, Hyp)) [A1-5-3] |
